From publication doi:10.1101/2022.01.27.477315
No constants are given. Whether binding was seen depends on the method and setting. Binding seen in cells or lysates may run through a third protein. For some assays here: Binding calls can cover weak binding; strength is not graded here. Tags and fused reporters may be left off the sequences shown.

Columns and labels:
GST-LC3 aa29-128 = test: pull-down
[1] = target: GST-LC3 aa29-128 truncated F52A mutant; test: pull-down

B1: Myc-tagged FOXM1 (protein, UniProt Q08050 1-763)
chain: MKTSPRRPLILKRRRLPLPVQNAPSETSEEEPKRSPAQQESNQAEASKEVAESNSCKFPAGIKIINHPTMPNTQVVAIPNNANIHSIITALTAKGKESGSSGPNKFILISCGGAPTQPPGLRPQTQTSYDAKRTEVTLETLGPKPAARDVNLPRPPGALCEQKRETCADGEAAGCTINNSLSNIQWLRKMSSDGLGSRSIKQEMEEKENCHLEQRQVKVEEPSRPSASWQNSVSERPPYSYMAMIQFAINSTERKRMTLKDIYTWIEDHFPYFKHIAKPGWKNSIRHNLSLHDMFVRETSANGKVSFWTIHPSANRYLTLDQVFKPLDPGSPQLPEHLESQQKRPNPELRRNMTIKTELPLGARRKMKPLLPRVSSYLVPIQFPVNQSLVLQPSVKVPLPLAASLMSSELARHSKRVRIAPKVLLAEEGIAPLSSAGPGKEEKLLFGEGFSPLLPVQTIKEEEIQPGEEMPHLARPIKVESPPLEEWPSPAPSFKEESSHSWEDSSQSPTPRPKKSYSGLRSPTRCVSEMLVIQHRERRERSRSRRKQHLLPPCVDEPELLFSEGPSTSRWAAELPFPADSSDPASQLSYSQEVGGPFKTPIKETLPISSTPSKSVLPRTPESWRLTPPAKVGGLDFSPVQTSQGASDPLPDPLGLMDLSTTPLQSAPPLESPQRLLSSEPLDLISVPFGNSSPSDIDVPKPGSPEPQVSGLAANRSLTEGLVLDTMNDSLSKILLDISFPGLDEDPLGPDNINWSQFIPELQ
GST-LC3 aa29-128
  binding: binds
[1]
  binding: no binding
